The record followed here is article PMC12402336.

Amino acid sequences for entries named in this document (tags omitted). Residues count along the entry.
UniProt Q9QUK6, residues 26-835: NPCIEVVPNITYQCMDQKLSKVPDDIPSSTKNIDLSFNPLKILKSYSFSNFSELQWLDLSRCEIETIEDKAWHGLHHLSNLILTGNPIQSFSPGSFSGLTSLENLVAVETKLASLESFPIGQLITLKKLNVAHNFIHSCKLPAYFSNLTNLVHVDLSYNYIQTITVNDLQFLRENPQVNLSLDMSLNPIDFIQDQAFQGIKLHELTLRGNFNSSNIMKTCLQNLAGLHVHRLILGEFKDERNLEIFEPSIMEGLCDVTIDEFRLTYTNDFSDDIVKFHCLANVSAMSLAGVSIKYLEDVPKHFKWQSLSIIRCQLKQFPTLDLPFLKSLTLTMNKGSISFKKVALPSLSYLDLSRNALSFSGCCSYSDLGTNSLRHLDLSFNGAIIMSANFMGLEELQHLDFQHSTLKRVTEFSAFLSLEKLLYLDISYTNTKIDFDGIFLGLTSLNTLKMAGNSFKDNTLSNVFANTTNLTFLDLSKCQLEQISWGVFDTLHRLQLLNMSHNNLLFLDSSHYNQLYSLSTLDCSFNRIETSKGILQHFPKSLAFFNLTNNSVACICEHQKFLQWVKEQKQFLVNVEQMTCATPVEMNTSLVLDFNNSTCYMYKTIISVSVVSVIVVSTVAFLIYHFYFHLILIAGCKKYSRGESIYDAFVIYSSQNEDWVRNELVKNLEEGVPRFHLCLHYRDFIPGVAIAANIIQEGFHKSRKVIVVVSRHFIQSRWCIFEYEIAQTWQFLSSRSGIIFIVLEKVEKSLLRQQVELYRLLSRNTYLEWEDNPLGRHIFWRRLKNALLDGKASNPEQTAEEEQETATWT

Assay [1] addresses T1, ARHGEF3 (endogenous) (mouse (endogenous in iBMDM)) (UniProt Q91X46).
T1 sequence: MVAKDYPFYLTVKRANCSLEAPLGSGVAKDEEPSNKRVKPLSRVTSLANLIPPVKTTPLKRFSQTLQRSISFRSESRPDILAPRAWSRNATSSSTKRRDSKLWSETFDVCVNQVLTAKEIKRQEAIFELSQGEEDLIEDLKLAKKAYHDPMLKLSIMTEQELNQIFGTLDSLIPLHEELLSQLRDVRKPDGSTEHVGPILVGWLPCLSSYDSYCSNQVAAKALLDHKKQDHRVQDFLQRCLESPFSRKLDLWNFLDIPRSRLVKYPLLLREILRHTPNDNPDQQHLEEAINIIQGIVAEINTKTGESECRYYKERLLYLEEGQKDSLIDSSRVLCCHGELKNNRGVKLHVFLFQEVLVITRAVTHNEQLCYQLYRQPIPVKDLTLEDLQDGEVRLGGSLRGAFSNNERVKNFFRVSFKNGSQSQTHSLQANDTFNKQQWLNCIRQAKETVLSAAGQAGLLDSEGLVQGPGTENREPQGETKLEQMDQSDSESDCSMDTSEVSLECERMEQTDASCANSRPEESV
Nature of the assay: co-IP; lysates of iBMDMs stably expressing TLR4-HA, LPS in the culture medium for 6 h; lysis buffer 50 mM Tris-HCl pH 8.0, 150 mM NaCl, 0.5% NP-40, 1 mM EDTA; overnight at 4 °C with Protein A/G PLUS-Agarose and ARHGEF3 antibody or HA antibody (reciprocal); western blot. In general terms: A western blot detects proteins with antibodies after separation by electrophoresis.

Assay [2] addresses HA-tagged TLR4 (mTLR4-HA) (mouse) (UniProt Q9QUK6). The assay is described as above.

Results are given in words; binding and its absence hold for the method and conditions named. Binding seen in cells or lysates may run through a third protein. Some binding calls cover weakened binding; strength is not graded here.

“HA-tagged TLR4 (mTLR4-HA) (from UniProt Q9QUK6 26-835) (receptor)”: in assay [1], the binding result was “binds”.

B1: ARHGEF3 (endogenous) (protein, UniProt Q91X46 1-524)
chain: T1 sequence
In the case of B1, in assay [2], the binding entry is reported as “binds”.
